Read-outs that look alike come from different tables or passages of the source. No constants are given. Whether binding was seen depends on the method and setting. In cells and extracts the contact can be indirect. These calls come from enrichment with a bait or labelling near it, and not all partners need be listed.
B1: DHX29 (protein, UniProt Q7Z478 1-1369)
chain: MGGKNKKHKAPAAAVVRAAVSASRAKSAEAGIAGEAQSKKPVSRPATAAAAAAGSREPRVKQGPKIYSFNSTNDSSGPANLDKSILKVVINNKLEQRIIGVINEHKKQNNDKGMISGRLTAKKLQDLYMALQAFSFKTKDIEDAMTNTLLYGGDLHSALDWLCLNLSDDALPEGFSQEFEEQQPKSRPKFQSPQIQATISPPLQPKTKTYEEDPKSKPKKEEKNMEVNMKEWILRYAEQQNEEEKNENSKSLEEEEKFDPNERYLHLAAKLLDAKEQAATFKLEKNKQGQKEAQEKIRKFQREMETLEDHPVFNPAMKISHQQNERKKPPVATEGESALNFNLFEKSAAATEEEKDKKKEPHDVRNFDYTARSWTGKSPKQFLIDWVRKNLPKSPNPSFEKVPVGRYWKCRVRVIKSEDDVLVVCPTILTEDGMQAQHLGATLALYRLVKGQSVHQLLPPTYRDVWLEWSDAEKKREELNKMETNKPRDLFIAKLLNKLKQQQQQQQQHSENKRENSEDPEESWENLVSDEDFSALSLESANVEDLEPVRNLFRKLQSTPKYQKLLKERQQLPVFKHRDSIVETLKRHRVVVVAGETGSGKSTQVPHFLLEDLLLNEWEASKCNIVCTQPRRISAVSLANRVCDELGCENGPGGRNSLCGYQIRMESRACESTRLLYCTTGVLLRKLQEDGLLSNVSHVIVDEVHERSVQSDFLLIILKEILQKRSDLHLILMSATVDSEKFSTYFTHCPILRISGRSYPVEVFHLEDIIEETGFVLEKDSEYCQKFLEEEEEVTINVTSKAGGIKKYQEYIPVQTGAHADLNPFYQKYSSRTQHAILYMNPHKINLDLILELLAYLDKSPQFRNIEGAVLIFLPGLAHIQQLYDLLSNDRRFYSERYKVIALHSILSTQDQAAAFTLPPPGVRKIVLATNIAETGITIPDVVFVIDTGRTKENKYHESSQMSSLVETFVSKASALQRQGRAGRVRDGFCFRMYTRERFEGFMDYSVPEILRVPLEELCLHIMKCNLGSPEDFLSKALDPPQLQVISNAMNLLRKIGACELNEPKLTPLGQHLAALPVNVKIGKMLIFGAIFGCLDPVATLAAVMTEKSPFTTPIGRKDEADLAKSALAMADSDHLTIYNAYLGWKKARQEGGYRSEITYCRRNFLNRTSLLTLEDVKQELIKLVKAAGFSSSTTSTSWEGNRASQTLSFQEIALLKAVLVAGLYDNVGKIIYTKSVDVTEKLACIVETAQGKAQVHPSSVNRDLQTHGWLLYQEKIRYARVYLRETTLITPFPVLLFGGDIEVQHRERLLSIDGWIYFQAPVKIAVIFKQLRVLIDSVLRKKLENPKMSLENDKILQIITELIKTENN
B2: EIF2A (protein, UniProt Q9BY44 1-585)
chain: MAPSTPLLTVRGSEGLYMVNGPPHFTESTVFPRESGKNCKVCIFSKDGTLFAWGNGEKVNIISVTNKGLLHSFDLLKAVCLEFSPKNTVLATWQPYTTSKDGTAGIPNLQLYDVKTGTCLKSFIQKKMQNWCPSWSEDETLCARNVNNEVHFFENNNFNTIANKLHLQKINDFVLSPGPQPYKVAVYVPGSKGAPSFVRLYQYPNFAGPHAALANKSFFKADKVTMLWNKKATAVLVIASTDVDKTGASYYGEQTLHYIATNGESAVVQLPKNGPIYDVVWNSSSTEFCAVYGFMPAKATIFNLKCDPVFDFGTGPRNAAYYSPHGHILVLAGFGNLRGQMEVWDVKNYKLISKPVASDSTYFAWCPDGEHILTATCAPRLRVNNGYKIWHYTGSILHKYDVPSNAELWQVSWQPFLDGIFPAKTITYQAVPSEVPNEEPKVATAYRPPALRNKPITNSKLHEEEPPQNMKPQSGNDKPLSKTALKNQRKHEAKKAAKQEARSDKSPDLAPTPAPQSTPRNTVSQSISGDPEIDKKIKNLKKKLKAIEQLKEQAATGKQLEKNQLEKIQKETALLQELEDLELGI

Amino acid sequences for entries named in this document (tags omitted). A change or cut given only in a name is not applied to a line headed by its entry.
UniProt P09936: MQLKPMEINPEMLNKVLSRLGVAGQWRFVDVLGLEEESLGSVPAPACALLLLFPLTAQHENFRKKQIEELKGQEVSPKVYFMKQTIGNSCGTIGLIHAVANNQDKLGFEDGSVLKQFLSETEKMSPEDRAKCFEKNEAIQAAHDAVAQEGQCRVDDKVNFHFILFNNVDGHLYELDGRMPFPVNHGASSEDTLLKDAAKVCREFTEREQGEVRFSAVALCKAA
UniProt P41091: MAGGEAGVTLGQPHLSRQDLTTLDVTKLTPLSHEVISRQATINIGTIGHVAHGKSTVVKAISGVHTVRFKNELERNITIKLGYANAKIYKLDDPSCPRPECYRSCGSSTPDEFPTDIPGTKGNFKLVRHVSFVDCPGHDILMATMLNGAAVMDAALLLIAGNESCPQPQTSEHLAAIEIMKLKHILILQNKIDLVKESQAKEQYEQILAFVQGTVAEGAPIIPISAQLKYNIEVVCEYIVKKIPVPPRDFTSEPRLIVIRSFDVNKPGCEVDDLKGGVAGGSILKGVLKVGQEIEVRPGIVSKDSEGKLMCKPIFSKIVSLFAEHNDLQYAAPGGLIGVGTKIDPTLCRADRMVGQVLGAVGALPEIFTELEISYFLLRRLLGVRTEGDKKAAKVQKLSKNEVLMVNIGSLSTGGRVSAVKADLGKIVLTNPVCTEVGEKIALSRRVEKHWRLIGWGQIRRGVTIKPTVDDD
UniProt P55884: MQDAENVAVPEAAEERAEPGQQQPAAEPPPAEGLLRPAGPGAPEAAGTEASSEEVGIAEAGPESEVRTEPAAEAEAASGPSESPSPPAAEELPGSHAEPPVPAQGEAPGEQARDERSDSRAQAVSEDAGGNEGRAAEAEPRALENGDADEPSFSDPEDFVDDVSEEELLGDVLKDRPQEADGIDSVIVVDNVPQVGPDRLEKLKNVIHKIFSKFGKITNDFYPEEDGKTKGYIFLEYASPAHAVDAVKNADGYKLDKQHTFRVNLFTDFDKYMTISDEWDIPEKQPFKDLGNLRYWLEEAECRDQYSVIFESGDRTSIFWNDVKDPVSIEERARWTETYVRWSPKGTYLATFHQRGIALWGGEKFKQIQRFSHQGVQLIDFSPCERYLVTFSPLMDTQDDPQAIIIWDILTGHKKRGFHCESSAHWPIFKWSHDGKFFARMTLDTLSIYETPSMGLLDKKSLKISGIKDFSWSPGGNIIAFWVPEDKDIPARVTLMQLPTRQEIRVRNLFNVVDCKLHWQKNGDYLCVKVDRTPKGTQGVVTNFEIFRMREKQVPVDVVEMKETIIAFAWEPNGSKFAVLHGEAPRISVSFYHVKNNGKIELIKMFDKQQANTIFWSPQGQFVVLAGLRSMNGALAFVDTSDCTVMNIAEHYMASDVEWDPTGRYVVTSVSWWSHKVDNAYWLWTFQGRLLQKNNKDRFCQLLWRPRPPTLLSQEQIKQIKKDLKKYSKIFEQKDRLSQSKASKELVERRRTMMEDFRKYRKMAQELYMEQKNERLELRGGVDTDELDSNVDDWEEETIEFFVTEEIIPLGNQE
UniProt O75821: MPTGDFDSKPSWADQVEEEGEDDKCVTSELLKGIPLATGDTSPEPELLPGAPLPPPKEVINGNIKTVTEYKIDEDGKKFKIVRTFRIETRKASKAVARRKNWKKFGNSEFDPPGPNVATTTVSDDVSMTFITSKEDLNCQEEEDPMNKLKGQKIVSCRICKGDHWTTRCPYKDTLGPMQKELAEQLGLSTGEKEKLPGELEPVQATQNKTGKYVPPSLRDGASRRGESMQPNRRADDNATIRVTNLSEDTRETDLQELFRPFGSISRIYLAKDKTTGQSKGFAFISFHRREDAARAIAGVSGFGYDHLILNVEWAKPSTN
UniProt O15372: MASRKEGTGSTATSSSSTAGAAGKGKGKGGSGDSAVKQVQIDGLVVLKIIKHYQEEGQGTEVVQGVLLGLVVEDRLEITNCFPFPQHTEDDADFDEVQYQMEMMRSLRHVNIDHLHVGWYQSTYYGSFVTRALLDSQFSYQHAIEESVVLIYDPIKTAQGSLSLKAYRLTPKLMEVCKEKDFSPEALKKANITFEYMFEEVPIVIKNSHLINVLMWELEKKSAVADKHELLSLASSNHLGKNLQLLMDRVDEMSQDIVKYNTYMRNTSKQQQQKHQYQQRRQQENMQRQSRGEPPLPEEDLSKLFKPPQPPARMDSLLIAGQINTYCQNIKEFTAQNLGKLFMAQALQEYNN
UniProt P78344: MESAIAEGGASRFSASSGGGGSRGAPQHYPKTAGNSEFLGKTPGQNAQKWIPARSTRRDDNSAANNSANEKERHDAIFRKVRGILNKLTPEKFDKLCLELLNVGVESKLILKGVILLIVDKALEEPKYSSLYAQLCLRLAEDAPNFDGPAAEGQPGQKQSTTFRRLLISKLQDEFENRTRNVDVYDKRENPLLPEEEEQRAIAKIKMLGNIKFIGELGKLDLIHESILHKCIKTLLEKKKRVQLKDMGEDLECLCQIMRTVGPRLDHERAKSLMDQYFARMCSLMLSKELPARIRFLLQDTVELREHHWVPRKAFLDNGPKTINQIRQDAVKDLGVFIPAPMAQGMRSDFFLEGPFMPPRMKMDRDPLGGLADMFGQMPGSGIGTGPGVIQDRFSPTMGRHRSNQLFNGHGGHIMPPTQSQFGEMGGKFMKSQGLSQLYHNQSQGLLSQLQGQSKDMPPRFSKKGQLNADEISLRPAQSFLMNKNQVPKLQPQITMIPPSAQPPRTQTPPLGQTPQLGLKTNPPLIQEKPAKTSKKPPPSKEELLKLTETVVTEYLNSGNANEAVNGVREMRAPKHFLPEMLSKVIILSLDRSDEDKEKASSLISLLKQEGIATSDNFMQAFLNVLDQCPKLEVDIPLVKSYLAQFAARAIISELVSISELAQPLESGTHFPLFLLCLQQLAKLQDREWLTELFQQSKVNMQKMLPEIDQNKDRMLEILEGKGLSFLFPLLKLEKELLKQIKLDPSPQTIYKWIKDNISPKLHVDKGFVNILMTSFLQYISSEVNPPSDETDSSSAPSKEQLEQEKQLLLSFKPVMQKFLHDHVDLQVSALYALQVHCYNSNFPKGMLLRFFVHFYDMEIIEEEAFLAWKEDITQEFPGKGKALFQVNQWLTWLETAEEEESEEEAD
UniProt O43432: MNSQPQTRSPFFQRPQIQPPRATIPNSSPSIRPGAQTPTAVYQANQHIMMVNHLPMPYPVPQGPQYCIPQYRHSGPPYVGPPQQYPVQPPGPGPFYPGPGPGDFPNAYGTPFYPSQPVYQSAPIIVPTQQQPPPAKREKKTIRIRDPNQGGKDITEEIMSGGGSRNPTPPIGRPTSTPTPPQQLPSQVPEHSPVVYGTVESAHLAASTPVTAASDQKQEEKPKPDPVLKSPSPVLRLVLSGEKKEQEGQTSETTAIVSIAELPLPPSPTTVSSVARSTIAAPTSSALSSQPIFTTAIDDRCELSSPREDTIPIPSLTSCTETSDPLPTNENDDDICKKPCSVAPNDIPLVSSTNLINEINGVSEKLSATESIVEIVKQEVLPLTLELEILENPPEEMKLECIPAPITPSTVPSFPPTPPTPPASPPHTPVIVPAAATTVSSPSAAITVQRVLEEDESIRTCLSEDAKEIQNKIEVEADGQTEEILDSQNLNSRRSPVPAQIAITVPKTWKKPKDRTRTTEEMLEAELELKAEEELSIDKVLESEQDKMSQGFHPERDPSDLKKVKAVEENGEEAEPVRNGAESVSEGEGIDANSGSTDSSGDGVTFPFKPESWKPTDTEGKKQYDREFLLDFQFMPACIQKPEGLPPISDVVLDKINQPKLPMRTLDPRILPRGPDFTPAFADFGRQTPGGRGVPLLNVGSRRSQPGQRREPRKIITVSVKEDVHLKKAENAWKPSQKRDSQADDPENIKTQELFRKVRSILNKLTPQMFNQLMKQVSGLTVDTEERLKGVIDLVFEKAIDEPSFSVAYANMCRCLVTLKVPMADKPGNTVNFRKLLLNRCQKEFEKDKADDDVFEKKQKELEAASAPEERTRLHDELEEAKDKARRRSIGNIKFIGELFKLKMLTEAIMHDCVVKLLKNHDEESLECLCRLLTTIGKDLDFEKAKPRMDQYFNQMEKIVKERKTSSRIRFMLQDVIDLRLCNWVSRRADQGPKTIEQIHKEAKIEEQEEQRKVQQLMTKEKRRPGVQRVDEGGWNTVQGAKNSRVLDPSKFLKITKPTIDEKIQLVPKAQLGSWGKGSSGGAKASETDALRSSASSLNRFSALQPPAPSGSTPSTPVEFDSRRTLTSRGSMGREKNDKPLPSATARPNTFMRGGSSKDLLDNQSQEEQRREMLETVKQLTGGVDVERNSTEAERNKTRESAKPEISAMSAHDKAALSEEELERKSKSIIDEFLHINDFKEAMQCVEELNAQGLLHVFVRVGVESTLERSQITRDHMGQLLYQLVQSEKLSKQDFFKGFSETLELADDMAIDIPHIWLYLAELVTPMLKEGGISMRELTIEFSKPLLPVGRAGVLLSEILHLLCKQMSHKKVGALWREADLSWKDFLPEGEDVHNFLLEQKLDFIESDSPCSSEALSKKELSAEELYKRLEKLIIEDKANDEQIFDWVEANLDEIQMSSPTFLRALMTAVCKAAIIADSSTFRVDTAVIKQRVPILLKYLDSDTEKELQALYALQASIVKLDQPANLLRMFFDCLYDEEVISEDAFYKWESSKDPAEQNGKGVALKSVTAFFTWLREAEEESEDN
UniProt P63241: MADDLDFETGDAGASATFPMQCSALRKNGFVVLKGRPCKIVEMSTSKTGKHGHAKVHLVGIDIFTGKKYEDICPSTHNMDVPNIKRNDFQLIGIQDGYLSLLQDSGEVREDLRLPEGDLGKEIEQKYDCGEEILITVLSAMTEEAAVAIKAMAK
UniProt P11940: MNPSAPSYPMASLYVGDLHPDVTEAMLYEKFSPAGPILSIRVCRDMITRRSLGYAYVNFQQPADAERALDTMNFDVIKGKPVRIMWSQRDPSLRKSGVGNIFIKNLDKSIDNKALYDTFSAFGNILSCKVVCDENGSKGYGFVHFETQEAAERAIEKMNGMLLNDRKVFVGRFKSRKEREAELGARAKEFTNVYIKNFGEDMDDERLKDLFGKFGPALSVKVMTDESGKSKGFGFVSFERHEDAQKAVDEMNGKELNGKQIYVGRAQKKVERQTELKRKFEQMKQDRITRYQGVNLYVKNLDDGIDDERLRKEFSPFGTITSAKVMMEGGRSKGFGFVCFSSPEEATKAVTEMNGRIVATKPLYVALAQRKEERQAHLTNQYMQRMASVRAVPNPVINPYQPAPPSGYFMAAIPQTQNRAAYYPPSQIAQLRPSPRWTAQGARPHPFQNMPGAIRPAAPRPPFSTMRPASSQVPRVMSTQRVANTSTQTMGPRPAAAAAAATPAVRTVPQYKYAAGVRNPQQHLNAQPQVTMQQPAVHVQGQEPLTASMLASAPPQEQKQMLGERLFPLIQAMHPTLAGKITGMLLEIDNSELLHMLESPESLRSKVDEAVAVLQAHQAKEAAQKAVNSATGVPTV
UniProt P60842: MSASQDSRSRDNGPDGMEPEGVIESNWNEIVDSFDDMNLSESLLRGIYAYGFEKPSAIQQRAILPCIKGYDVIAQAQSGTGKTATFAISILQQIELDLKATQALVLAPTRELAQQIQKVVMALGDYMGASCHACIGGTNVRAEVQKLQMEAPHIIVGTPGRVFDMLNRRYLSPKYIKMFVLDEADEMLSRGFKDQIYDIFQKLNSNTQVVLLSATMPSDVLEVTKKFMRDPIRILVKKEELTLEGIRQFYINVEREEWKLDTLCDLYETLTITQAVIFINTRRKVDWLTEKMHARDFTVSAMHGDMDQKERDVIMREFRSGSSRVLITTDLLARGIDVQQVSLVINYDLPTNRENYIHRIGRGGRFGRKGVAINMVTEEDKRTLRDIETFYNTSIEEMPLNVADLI

Experiments:
Assay in all cases: proximity labelling; BioID2 fused to the N-terminus of UCH-L1, KMS11 cells pulsed with biotin, lysed, streptavidin retrieval and proteomic identification; duplicate experiments; compared with BioID2 alone
BioID2-UCHL1 (wild type) [1] = molecular target: BioID2-UCHL1 (wild type) (UniProt P09936)
BioID2-UCHL1 C220S [2] = molecular target: BioID2-UCHL1 C220S (UniProt P09936)
BioID2-UCHL1 (wild type) [3] = molecular target: BioID2-UCHL1 (wild type) (UniProt P09936); remark: listed apart in the source
BioID2-UCHL1 C220S [4] = molecular target: BioID2-UCHL1 C220S (UniProt P09936); remark: listed apart in the source

Row | Molecule | binding (BioID2-UCHL1 (wild type) [1]) | binding (BioID2-UCHL1 C220S [2]) | binding (BioID2-UCHL1 (wild type) [3]) | binding (BioID2-UCHL1 C220S [4])
1 | EIF2S3 (from UniProt P41091 1-472) | binds | binds |  | 
2 | EIF3B (from UniProt P55884 1-814) | binds |  |  | 
3 | EIF3G (from UniProt O75821 1-320) | binds | binds |  | 
4 | EIF3H (from UniProt O15372 1-352) | binds |  |  | 
5 | EIF4G1 (from UniProt Q04637 1-1599) | binds | binds |  | 
6 | EIF4G2 (from UniProt P78344 1-907) | binds | binds |  | 
7 | EIF4G3 (from UniProt O43432 1-1585) | binds | binds |  | 
8 | EIF5A (from UniProt P63241 1-154) | binds | binds |  | 
9 | PABPC1 (from UniProt P11940 1-636) | binds | binds |  | 
10 | eIF4A (eIF4F complex subunit) (from UniProt P60842 1-406) | binds |  |  | 
11 | B1 |  |  | binds | binds
12 | B2 |  |  | binds | binds
